In PubChem BioAssay AID1487 (National Center for Advancing Translational Sciences (NCATS), 2009):
The list shows a part of the results. These are further read-outs of the screen, such as a control signal, another cell line or another target. No call is given for them. Most of these compounds were active or inconclusive in the main read-out, so they are no random draw. The note in brackets gives the kind of curve behind each potency; many fits are weak.

Test: qHTS Assay for Modulators of Lamin A Splicing
Settings: HeLa LMNA splicing GFP/RFP minigene ratio, 48 h
Method in brief: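 S3 HeLa stable clones carrying a lamin A-EGFP splicing minigene plus DsRed2 were seeded at 600 cells/well in Opti-MEM with 2% FBS, pin-dosed and incubated 48 h at 37°C. Acumen cytometry (488 nm) gave the GFP/RFP total-intensity ratio.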

[1] = measured here: GFP splicing reporter channel
[2] = measured here: RFP viability control channel

| Structure (SMILES) | AC50 [1] | AC50 [2] |
| --- | --- | --- |
| Cc1ccc(C)n1C1CCS(=O)(=O)C1 (configuration not stated) | 5.01 µM [falling, partial curve, poor fit] | – |
| COc1ccc(O)c(/C=N/NC(=S)Nc2cccc(S(=O)(=O)N(C)C)c2)c1 | 3.16 µM [rising, single point] | 6.31 µM [rising, full curve] |
| Cc1ccccc1N1C(=O)c2cccc([N+](=O)[O-])c2C1=O | – | 2.24 µM [falling, partial curve] |
| COc1cc2c3c(c1)C1(C(=O)N3C(C)(C)C=C2C)C(C#N)=C(N)Oc2cc(O)ccc21 (configuration not stated) | 4.47 µM [rising, partial curve, poor fit] | – |
| Cc1ccc([N+](=O)[O-])cc1-c1[nH]c(-c2ccc(O)c(O)c2)nc1-c1ccccc1 | 35.5 µM [rising, single point] | – |
| CC(=O)Nc1nc2ccccc2n1CCOc1ccccc1Cl | – | 14.1 µM [rising, single point] |
| O=C(COc1ccccc1)Nc1nc(-c2cccs2)cs1 | – | 35.5 µM [rising, single point] |
| c1ccc(-c2noc(CSc3nnc(Cc4cccs4)n3-c3ccccc3)n2)cc1 | – | 35.5 µM [rising, single point] |
| COCCn1c(SCC(=O)NNC(=O)Cc2ccccc2)nc2ccccc2c1=O | – | 4.47 µM [rising, full curve, poor fit] |
| CC(C)N(C(=O)CSc1nnc(NC(=O)Cc2cccs2)s1)C(C)C | 2.82 µM [falling, partial curve] | – |
| Cc1c(NC(=O)c2c(N)sc3c2CCCC3)c(=O)n(-c2ccccc2)n1C | 5.01 µM [rising, single point] | – |
| COc1ccc(C2CC(=O)Nc3c2c(C)nn3-c2nc(C)cc(C)n2)c(OC)c1OC (configuration not stated) | – | 0.02 µM [falling, full curve, poor fit] |
| CCCCc1cc2ccccc2c(OCCN(C)C)n1 | – | 0.0794 µM [rising, full curve, poor fit] |
| COc1ccccc1N1CCN(S(=O)(=O)c2ccc(Cl)s2)CC1 | – | 20 µM [rising, single point] |
| COc1ccc(OC)c(NC(=O)c2nnn(CC(=O)Nc3ccc(C(C)C)cc3)c2N)c1 | 35.5 µM [falling, single point] | 25.1 µM [falling, partial curve] |
| COc1ccc(CCNC(=O)c2ccc3nc(CCc4ccccc4)oc3c2)cc1OC | 2.51 µM [falling, full curve, poor fit] | 2.82 µM [falling, partial curve, poor fit] |
| COc1ccc2[nH]c3c(=O)n(/N=C/[C@H]4C(C)C=C(C)CC4C)c(=O)[nH]c3c2c1 (some centres not stated) | – | 35.5 µM [falling, single point] |
| Cc1ccc(C)c(NC(=O)c2oc(=O)c3ccccc3c2-c2ccccc2)c1 | – | 35.5 µM [rising, single point] |
| Cc1nn(Cc2cccc(C(=O)NCC(C)C)c2)c(C)c1Br | – | 17.8 µM [rising, single point] |

| Structure (SMILES) | AC50 [1] | AC50 [2] |
| --- | --- | --- |
| CCn1cc(C(=O)N2CC=C(c3ccccc3)CC2)c(=O)c2ccc(C)nc21 | 35.5 µM [rising, single point] | 35.5 µM [rising, single point] |
| CC(C)OC(=O)c1cc2ccccc2[nH]1 | – | 15.8 µM [rising, single point] |
| Fc1ccccc1N1CCN(Cc2cnc(Cl)s2)CC1 | – | 14.1 µM [falling, partial curve, poor fit] |
| O=C(NC1C=CS(=O)(=O)C1)c1ccccc1 (configuration not stated) | – | 0.178 µM [falling, full curve, poor fit] |
| CC(=O)Nc1ccc(S(=O)(=O)NCc2ccc(C(=O)NCCN3CCCCCC3)cc2)cc1 | 0.141 µM [rising, full curve, poor fit] | – |
| C/C(=N/O)c1ccc2c(c1)OCCOCCOc1cc(/C(C)=N/O)ccc1OCCOCCO2 | – | 11.2 µM [rising, partial curve, poor fit] |
| O=S(=O)(Cc1ccccc1)/C1=C(\N2CCOCC2)CCCCCC1 | 5.62 µM [rising, partial curve, poor fit] | 10 µM [rising, partial curve, poor fit] |
| COc1ccccc1NC(=O)c1cc2cc3ccc(OC)c(Cl)c3nc2s1 | – | 17.8 µM [falling, single point] |
| CC1(OC(=O)C2CCCC2)C(=O)C=C2C=C(c3ccsc3)N(CCc3c[nH]c4ccccc34)C=C2C1=O (configuration not stated) | 0.000794 µM [rising, full curve, poor fit] | – |
| O=C(COC(=O)CCSc1ccccc1)NCc1ccccc1 | – | 17.8 µM [falling, partial curve, poor fit] |
| COC(=O)Nc1ccc(S(=O)(=O)N2c3ccccc3CCC2C)cc1 (configuration not stated) | 12.6 µM [rising, partial curve] | 7.08 µM [rising, partial curve] |
| COc1ccc2cc3cc(C(=O)NCc4ccco4)oc3nc2c1 | 22.4 µM [rising, single point] | 35.5 µM [rising, single point] |
| CC(C)(C)NC(=O)c1ccccc1-c1nc(-c2ccccc2Cl)no1 | 35.5 µM [rising, single point] | – |
| COc1ccc2ncc3c(-c4ccc(C)c(C)c4)nn(CC(=O)Nc4ccccc4)c3c2c1 | 0.1 µM [falling, full curve, poor fit] | 3.55 µM [falling, partial curve] |
| O=S(=O)(Nc1ccc(-n2cccc2)cc1)c1ccc(Cl)cc1Cl | – | 22.4 µM [rising, single point] |
| COc1cc(C(=O)NC(=S)NNC(=O)c2cnccn2)cc(OC)c1OC | 22.4 µM [rising, single point] | 35.5 µM [rising, single point] |
| COC(=O)c1c(NC(=O)C2COc3ccccc3O2)sc2c1CCN(C(C)=O)C2 (configuration not stated) | – | 12.6 µM [rising, partial curve] |
| Cc1ccc(NC(=O)CS(=O)CC(=O)N(C(C)C(=O)NC2CCCCC2)C(C)(C)C)cc1 (configuration not stated) | – | 0.00447 µM [rising, full curve, poor fit] |
| Cc1onc(-c2ccccc2)c1C(=O)N/N=C/c1ccc([N+](=O)[O-])s1 | 14.1 µM [rising, partial curve] | 25.1 µM [rising, single point] |

Whole records, looked up by structure. Order of values: AC50 [1]	AC50 [2]
Cc1ccc(NC(=O)CS(=O)CC(=O)N(C(C)C(=O)NC2CCCCC2)C(C)(C)C)cc1 (configuration not stated) is listed as –	0.00447 µM [rising, full curve, poor fit]
COC(=O)Nc1ccc(S(=O)(=O)N2c3ccccc3CCC2C)cc1 (configuration not stated) is listed as 12.6 µM [rising, partial curve]	7.08 µM [rising, partial curve]
CCn1cc(C(=O)N2CC=C(c3ccccc3)CC2)c(=O)c2ccc(C)nc21 is listed as 35.5 µM [rising, single point]	35.5 µM [rising, single point]
COc1ccc2ncc3c(-c4ccc(C)c(C)c4)nn(CC(=O)Nc4ccccc4)c3c2c1 is listed as 0.1 µM [falling, full curve, poor fit]	3.55 µM [falling, partial curve]

The list goes on.

| Structure (SMILES) | AC50 [1] | AC50 [2] |
| --- | --- | --- |
| CCOP(=O)(OCC)C(NC(=O)c1cccs1)C(F)(F)F (configuration not stated) | – | 1 µM [rising, partial curve, poor fit] |
| COc1ccc(N2CCN(c3ccc(N4C(=O)COCC4=O)cc3[N+](=O)[O-])CC2)cc1 | – | 22.4 µM [rising, single point] |
| Cc1ccc(-n2ncc(N(C)C)c(Cl)c2=O)cc1 | – | 3.16 µM [rising, single point] |
| CCOC(=O)CNC(=O)c1cnn2cccnc12 | 0.0447 µM [rising, full curve, poor fit] | 0.0398 µM [rising, partial curve] |
| CC(/C=N/Nc1nc2ccccc2[nH]1)=C\c1ccccc1 | – | 0.00501 µM [rising, full curve, poor fit] |
| COc1ccc(-c2nc3cnc(N4CCOCC4)nc3n(Cc3cccs3)c2=O)cc1 | 35.5 µM [falling, single point] | 35.5 µM [falling, single point] |
| Cc1ccc(C(C)n2cc(C(=O)NCc3ccncc3)nn2)cc1 (configuration not stated) | 3.98 µM [rising, partial curve] | 10 µM [rising, partial curve, poor fit] |
| COc1ccc(C(C)=O)cc1CSc1nc(NCc2ccccc2)c2ccccc2n1 | 20 µM [rising, single point] | – |
| CC(C)(C)CC(C)(C)c1ccc(OCOCCOCCO)c(Cc2cc(C(C)(C)CC(C)(C)C)cc(Cc3cc(C(C)(C)CC(C)(C)C)ccc3OCOCCOCCO)c2OCOCCOCCO)c1 | 0.316 µM [falling, single point] | 0.251 µM [falling, full curve] |
| c1csc(C2=Nn3c(nnc3-c3ccncc3)SC2)c1 | – | 1.78 µM [falling, partial curve] |
| COc1cc(N=Nc2cccc(S(N)(=O)=O)c2)c2ccccc2c1N | 1.12 µM [falling, full curve] | – |
| COc1ccc2nc(-n3c(O)c(C4=c5ccccc5=NC4=O)[nH]c3=S)sc2c1 | – | 14.1 µM [rising, partial curve, poor fit] |
| COCCN(C(=O)CNC(=O)c1cccs1)C(C(=O)NC1CCCCC1)c1ccco1 (configuration not stated) | 35.5 µM [rising, single point] | – |
| Cc1ccc(/C=C/C(=O)Nc2nccs2)o1 | 7.94 µM [rising, partial curve, poor fit] | 4.47 µM [rising, partial curve, poor fit] |
| Cc1oc(/N=C/c2ccccc2O)c(C#N)c1C | 0.178 µM [rising, partial curve, poor fit] | – |
| N#Cc1cc2ccccc2nc1SCC(=O)Nc1ccc(S(=O)(=O)N2CCCC2)cc1 | 14.1 µM [rising, single point] | 15.8 µM [rising, single point] |
| Clc1ccc2[nH]c3c(NCCCN4CCOCC4)ncnc3c2c1 | – | 7.08 µM [rising, partial curve] |
| CC1(C)CC(N=Cc2c(O)n(Cc3ccc4c(c3)OCO4)c(=O)c3ccccc23)CC(C)(C)N1 | 35.5 µM [falling, single point] | – |
